In the supplement of paper PMC10849652:
The other results are listed elsewhere or left out.

By UniProt entry, the sequences of proteins in these tests, tags left out. Where a name states a change or a piece, a line headed by the entry shows the natural chain unless it says otherwise.
UniProt Q9UJU6: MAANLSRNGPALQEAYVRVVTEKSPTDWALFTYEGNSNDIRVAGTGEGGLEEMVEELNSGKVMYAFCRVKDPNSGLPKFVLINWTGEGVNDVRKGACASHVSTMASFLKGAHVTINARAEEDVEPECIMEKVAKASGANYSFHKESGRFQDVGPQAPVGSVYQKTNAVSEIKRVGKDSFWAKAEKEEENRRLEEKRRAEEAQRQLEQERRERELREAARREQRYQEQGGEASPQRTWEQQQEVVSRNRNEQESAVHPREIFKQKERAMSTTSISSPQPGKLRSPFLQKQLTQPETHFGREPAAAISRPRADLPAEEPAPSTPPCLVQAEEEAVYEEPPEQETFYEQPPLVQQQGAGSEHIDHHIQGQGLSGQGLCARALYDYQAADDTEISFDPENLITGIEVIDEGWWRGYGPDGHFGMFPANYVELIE
UniProt Q8IZD4: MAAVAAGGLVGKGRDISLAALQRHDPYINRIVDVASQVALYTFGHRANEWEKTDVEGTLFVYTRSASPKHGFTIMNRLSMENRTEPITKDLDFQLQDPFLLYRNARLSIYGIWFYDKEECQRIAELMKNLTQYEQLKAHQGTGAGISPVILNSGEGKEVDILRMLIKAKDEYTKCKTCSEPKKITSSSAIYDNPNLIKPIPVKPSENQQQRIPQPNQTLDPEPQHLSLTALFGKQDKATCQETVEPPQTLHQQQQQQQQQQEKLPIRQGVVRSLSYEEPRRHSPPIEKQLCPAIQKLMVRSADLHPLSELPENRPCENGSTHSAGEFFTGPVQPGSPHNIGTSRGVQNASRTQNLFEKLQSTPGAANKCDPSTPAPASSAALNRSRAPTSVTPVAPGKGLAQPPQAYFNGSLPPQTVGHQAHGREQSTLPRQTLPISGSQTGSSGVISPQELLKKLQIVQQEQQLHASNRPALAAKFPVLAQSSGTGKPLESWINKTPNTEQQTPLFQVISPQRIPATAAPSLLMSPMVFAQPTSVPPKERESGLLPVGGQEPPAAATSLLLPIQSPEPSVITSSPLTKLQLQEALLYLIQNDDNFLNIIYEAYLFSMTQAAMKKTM
UniProt Q9NV06: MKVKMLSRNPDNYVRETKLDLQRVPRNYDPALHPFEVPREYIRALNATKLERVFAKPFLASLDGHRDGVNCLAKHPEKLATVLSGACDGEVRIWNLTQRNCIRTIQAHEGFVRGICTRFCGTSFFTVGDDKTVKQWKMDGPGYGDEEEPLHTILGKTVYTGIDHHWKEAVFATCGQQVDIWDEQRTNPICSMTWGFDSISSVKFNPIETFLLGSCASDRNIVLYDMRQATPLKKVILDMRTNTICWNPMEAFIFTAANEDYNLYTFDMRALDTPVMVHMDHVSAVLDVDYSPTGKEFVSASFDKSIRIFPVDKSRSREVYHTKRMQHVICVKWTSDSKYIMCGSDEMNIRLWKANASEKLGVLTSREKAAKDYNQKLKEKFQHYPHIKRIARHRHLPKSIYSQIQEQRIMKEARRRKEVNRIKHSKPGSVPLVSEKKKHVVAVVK
UniProt P0DMU8: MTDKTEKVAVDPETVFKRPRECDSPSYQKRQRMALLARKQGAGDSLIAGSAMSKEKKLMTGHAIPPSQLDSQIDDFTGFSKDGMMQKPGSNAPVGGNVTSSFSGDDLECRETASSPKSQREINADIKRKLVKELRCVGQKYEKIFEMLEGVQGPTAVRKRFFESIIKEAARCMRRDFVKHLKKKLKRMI
UniProt Q9NPI6: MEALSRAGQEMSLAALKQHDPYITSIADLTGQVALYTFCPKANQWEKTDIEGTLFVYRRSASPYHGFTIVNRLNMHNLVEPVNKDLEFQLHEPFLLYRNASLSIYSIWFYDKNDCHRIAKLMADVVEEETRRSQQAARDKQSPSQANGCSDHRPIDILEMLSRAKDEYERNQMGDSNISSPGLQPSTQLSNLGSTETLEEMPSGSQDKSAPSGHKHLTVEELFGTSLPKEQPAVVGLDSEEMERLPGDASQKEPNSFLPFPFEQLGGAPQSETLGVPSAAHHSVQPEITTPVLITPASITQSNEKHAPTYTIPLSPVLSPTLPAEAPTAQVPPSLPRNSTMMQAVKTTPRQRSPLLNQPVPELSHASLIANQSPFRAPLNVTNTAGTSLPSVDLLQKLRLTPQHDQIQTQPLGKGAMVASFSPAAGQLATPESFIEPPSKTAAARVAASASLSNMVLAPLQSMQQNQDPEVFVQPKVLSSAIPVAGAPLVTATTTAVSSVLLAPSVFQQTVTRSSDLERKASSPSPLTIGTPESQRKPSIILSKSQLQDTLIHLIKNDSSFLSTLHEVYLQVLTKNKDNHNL
UniProt Q9Y4B6: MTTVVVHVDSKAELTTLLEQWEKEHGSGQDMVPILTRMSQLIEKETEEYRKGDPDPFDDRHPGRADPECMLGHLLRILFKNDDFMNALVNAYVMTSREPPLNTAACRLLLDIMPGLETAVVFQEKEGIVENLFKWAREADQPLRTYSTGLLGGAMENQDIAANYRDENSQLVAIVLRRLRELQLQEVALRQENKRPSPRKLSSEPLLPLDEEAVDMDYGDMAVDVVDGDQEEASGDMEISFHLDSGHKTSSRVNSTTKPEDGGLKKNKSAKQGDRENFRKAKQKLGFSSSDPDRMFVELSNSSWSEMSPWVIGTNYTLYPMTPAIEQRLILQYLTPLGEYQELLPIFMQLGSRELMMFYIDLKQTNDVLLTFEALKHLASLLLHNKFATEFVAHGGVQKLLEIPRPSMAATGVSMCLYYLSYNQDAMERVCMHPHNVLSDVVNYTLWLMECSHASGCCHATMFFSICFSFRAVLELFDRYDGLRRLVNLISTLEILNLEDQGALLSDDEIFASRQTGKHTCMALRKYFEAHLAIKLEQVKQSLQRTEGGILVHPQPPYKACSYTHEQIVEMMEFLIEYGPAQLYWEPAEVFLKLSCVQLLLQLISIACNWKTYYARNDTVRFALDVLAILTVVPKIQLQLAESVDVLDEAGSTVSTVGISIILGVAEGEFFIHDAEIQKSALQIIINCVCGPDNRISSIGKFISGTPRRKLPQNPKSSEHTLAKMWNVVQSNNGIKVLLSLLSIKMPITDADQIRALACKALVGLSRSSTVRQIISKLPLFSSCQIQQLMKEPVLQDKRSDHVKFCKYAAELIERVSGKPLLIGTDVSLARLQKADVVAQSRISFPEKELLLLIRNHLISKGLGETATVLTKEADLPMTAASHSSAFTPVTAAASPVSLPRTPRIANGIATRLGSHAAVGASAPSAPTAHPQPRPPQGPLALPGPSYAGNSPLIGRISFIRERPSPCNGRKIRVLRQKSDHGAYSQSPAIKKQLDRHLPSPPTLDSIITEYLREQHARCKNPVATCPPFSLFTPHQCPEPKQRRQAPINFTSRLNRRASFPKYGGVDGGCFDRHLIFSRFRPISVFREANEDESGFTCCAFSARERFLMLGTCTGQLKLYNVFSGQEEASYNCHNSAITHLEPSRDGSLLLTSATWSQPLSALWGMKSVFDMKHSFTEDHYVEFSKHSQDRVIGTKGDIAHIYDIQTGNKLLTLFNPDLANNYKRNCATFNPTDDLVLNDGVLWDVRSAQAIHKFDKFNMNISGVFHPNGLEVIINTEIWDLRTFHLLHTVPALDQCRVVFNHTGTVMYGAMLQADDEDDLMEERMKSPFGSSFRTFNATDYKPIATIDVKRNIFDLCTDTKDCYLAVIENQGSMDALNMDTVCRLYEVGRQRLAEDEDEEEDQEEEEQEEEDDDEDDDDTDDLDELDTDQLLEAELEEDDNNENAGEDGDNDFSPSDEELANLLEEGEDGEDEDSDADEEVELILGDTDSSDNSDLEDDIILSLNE
UniProt Q13617, whole entry, looked up: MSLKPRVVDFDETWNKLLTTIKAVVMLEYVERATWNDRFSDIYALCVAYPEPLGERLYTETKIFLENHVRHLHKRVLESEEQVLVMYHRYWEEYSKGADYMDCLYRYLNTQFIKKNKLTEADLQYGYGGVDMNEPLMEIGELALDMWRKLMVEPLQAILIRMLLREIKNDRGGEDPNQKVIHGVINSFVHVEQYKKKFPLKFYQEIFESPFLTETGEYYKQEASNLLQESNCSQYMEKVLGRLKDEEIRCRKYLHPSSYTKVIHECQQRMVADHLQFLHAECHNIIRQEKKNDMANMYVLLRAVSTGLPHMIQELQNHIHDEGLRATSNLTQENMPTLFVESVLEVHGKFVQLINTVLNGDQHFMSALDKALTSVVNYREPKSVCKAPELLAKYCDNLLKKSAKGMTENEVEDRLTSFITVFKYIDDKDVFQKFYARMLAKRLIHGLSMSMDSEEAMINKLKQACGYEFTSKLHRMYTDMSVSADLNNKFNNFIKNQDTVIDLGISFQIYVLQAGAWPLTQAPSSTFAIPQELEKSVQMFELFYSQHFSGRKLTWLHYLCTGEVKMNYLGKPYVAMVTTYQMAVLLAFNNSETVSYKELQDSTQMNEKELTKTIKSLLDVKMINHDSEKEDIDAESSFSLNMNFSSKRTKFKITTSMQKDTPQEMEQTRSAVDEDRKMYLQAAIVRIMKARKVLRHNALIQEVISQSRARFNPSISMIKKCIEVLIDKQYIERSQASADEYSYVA
UniProt O00399, whole entry, looked up: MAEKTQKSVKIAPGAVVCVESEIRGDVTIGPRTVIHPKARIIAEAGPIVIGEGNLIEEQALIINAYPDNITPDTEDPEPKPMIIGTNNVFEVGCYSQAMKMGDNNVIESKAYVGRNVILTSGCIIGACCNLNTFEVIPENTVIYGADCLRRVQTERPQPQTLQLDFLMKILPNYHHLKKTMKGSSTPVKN
UniProt P04080: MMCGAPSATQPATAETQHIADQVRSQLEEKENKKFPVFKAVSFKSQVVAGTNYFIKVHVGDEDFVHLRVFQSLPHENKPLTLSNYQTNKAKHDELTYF
UniProt Q13948: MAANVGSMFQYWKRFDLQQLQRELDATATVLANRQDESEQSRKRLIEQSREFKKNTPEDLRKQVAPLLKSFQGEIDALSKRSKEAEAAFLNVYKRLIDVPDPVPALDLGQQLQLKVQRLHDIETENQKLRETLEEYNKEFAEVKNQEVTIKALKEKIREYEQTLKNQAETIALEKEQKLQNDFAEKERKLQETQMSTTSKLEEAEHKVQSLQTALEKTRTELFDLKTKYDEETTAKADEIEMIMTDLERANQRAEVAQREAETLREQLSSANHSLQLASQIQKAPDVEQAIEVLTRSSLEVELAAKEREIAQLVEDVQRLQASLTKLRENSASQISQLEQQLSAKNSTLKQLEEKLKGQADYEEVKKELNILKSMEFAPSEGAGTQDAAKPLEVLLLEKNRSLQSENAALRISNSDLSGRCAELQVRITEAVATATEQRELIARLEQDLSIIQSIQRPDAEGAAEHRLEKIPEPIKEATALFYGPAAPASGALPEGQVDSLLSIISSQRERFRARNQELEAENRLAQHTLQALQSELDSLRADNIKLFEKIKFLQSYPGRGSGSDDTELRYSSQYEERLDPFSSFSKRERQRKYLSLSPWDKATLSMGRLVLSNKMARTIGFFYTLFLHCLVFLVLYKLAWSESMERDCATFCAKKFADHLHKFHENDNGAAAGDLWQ
UniProt Q9P013: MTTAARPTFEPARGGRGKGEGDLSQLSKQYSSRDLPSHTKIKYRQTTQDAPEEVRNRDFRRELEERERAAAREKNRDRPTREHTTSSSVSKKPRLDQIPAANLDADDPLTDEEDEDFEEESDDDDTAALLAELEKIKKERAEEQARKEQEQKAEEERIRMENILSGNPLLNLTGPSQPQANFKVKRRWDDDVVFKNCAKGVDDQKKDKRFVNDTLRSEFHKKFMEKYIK
UniProt Q7L1T6: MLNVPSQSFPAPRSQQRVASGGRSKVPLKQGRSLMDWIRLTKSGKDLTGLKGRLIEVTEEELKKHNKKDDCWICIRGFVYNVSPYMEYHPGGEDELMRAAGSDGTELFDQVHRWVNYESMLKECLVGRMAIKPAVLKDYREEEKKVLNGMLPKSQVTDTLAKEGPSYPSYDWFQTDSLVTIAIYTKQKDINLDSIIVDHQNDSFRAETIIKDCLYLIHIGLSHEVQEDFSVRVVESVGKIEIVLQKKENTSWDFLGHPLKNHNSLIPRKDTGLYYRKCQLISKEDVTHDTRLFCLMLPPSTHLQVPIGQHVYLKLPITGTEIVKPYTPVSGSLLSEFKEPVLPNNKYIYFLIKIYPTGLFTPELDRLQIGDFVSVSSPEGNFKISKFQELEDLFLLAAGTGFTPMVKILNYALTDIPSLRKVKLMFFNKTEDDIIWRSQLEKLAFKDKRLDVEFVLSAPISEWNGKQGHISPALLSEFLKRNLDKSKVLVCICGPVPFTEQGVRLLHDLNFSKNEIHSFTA
UniProt P61962: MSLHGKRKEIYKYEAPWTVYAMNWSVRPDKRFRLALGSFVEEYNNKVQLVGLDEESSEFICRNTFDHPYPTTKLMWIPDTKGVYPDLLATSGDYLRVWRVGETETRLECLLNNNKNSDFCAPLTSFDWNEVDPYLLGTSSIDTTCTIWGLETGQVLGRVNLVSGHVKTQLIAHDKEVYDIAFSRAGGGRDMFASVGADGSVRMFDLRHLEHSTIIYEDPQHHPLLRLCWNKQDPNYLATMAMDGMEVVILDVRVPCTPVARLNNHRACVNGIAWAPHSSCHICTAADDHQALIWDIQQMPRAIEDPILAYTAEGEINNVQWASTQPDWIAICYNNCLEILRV

Tests used:
Assay in all cases: log2 fold change, soluble protein after heating vs DMSO (PISA); higher = thermal stabilisation; K562 cells, 10 uM, 30 min; active = over 0.2 and 3.5 SD of the protein, either way, in both replicates (recomputed)
bafetinib = compound: Cc1ccc(NC(=O)c2ccc(CN3CC[C@H](N(C)C)C3)c(C(F)(F)F)c2)cc1Nc1nccc(-c2cncnc2)n1 [bafetinib]
In short: (§1)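 Values are thermal stability changes relative to control samples and are taken from duplicates. They are stated as log2 fold changes. Before quantification by TMTpro 16plex LC-MS/MS with equalised channel sums, K562 cells at 2×10^6 cells/mL were treated with 10 μM compound for 30 min, heated in aliquots for 3 min across 48°C-58°C, pooled, extracted in PBS with 0.5% NP-40 at 4°C, and centrifuged at 21,000xg for 90 min to give the soluble supernatant.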

[1] = compound: Cc1cccc(CC(=O)N2CCc3c2ccc(-c2cn(C)c4ncnc(N)c24)c3F)n1
In short: as §1

nilotinib = compound: Cc1cn(-c2cc(NC(=O)c3ccc(C)c(Nc4nccc(-c5cccnc5)n4)c3)cc(C(F)(F)F)c2)cn1 [nilotinib]
In short: as §1

[2] = compound: Cc1nc(Nc2n[nH]c3c2CN(C(=O)N[C@H](CN(C)C)c2ccccc2)C3(C)C)c2sccc2n1
In short: as §1

dasatinib = compound: Cc1nc(Nc2ncc(C(=O)Nc3c(C)cccc3Cl)s2)cc(N2CCN(CCO)CC2)n1 [dasatinib]
In short: as §1

[3] = compound: Cc1ncc(-c2ccnc(Nc3ccc(S(C)(=O)=O)cc3)n2)n1C(C)C
In short: as §1

[4] = compound: Cn1cc(-c2ccc3c(c2)CCN3C(=O)Cc2cccc(C(F)(F)F)c2)c2c(N)ncnc21
In short: as §1

[5] = compound: Cn1cc(-c2ccc3nnc(C(F)(F)c4ccc5ncccc5c4)n3n2)cn1
In short: as §1

tipifarnib = compound: Cn1cncc1[C@@](N)(c1ccc(Cl)cc1)c1ccc2c(c1)c(-c1cccc(Cl)c1)cc(=O)n2C [tipifarnib]
In short: as §1

mubritinib = compound: FC(F)(F)c1ccc(/C=C/c2nc(COc3ccc(CCCCn4ccnn4)cc3)co2)cc1 [mubritinib]
In short: as §1

[6] = compound: NC(=O)Nc1cc(-c2cccc(F)c2)sc1C(=O)N[C@H]1CCCNC1
In short: as §1

[7] = compound: NC(=O)c1cnc(N[C@@H]2CCCC[C@@H]2N)nc1Nc1cccc(-n2nccn2)c1
In short: as §1

[8] = compound: NC1(c2ccc(-c3nc4ccn5c(=O)[nH]nc5c4cc3-c3ccccc3)cc2)CCC1
In short: as §1

[9] = compound: NCC(=O)Nc1ccc(-n2nc(C(F)(F)F)cc2-c2ccc3c(ccc4ccccc43)c2)cc1
In short: as §1

entinostat = compound: Nc1ccccc1NC(=O)c1ccc(CNC(=O)OCc2cccnc2)cc1 [entinostat]
In short: as §1

vorinostat = compound: O=C(CCCCCCC(=O)Nc1ccccc1)NO [vorinostat]
In short: as §1

citarinostat = compound: O=C(CCCCCCNC(=O)c1cnc(N(c2ccccc2)c2ccccc2Cl)nc1)NO [citarinostat]
In short: as §1

silmitasertib = compound: O=C(O)c1ccc2c(c1)nc(Nc1cccc(Cl)c1)c1ccncc12 [silmitasertib]
In short: as §1

[10] = compound: O=C1NC(=O)C(c2cnc3ccccn23)=C1c1cn2c3c(cc(F)cc13)CN(C(=O)N1CCCCC1)CC2
In short: as §1

[11] = compound: c1cc(OCCN2CCCCC2)cc(-c2n[nH]c3ccc(-c4nnc[nH]4)cc23)c1
In short: as §1

Row | Target | log2 fold change (bafetinib) | log2 fold change [1] | log2 fold change (nilotinib) | log2 fold change [2] | log2 fold change (dasatinib) | log2 fold change [3] | log2 fold change [4] | log2 fold change [5] | log2 fold change (tipifarnib) | log2 fold change (mubritinib) | log2 fold change [6] | log2 fold change [7] | log2 fold change [8] | log2 fold change [9] | log2 fold change (entinostat) | log2 fold change (vorinostat) | log2 fold change (citarinostat) | log2 fold change (silmitasertib) | log2 fold change [10] | log2 fold change [11]
1 | DBNL isoform 3 (UniProt Q9UJU6) | inactive: 0.048 | inactive: -0.007 | inactive: -0.05 | inactive: -0.071 | inactive: -0.098 | inactive: -0.013 | inactive: -0.003 | inactive: 0.057 | inactive: -0.096 | inactive: 0.032 | inactive: 0.021 | inactive: -0.022 | inactive: -0.109 | inactive: -0.061 | inactive: -0.003 | inactive: -0.01 | inactive: 0.063 | inactive: 0.058 | inactive: 0.012 | inactive: 0.007
2 | CTBP2 isoform 2 (UniProt P56545) | inactive: -0.011 | inactive: -0.032 | inactive: -0.028 | inactive: 0.007 | inactive: 0.023 | inactive: -0.029 | inactive: 0.054 | inactive: 0.012 | inactive: 0.062 | inactive: 0.032 | inactive: -0.005 | inactive: -0.027 | inactive: -0.04 | inactive: -0.072 | inactive: -0.015 | inactive: 0.007 | inactive: 0.02 | inactive: -0.035 | inactive: -0.016 | inactive: 0.1
3 | DCP1B (UniProt Q8IZD4) | inactive: 0.048 | – | – | – | – | – | – | – | – | – | – | – | – | – | – | – | – | – | – | –
4 | DCAF13 (UniProt Q9NV06) | inactive: 0.178 | inactive: 0 | inactive: 0.006 | inactive: 0.102 | inactive: 0.077 | inactive: -0.05 | inactive: -0.249 | inactive: -0.173 | inactive: 0.193 | inactive: -0.106 | inactive: -0.004 | inactive: 0.049 | inactive: 0.196 | inactive: 0.077 | inactive: -0.058 | inactive: 0.004 | inactive: -0.044 | inactive: 0.108 | inactive: 0.054 | inactive: -0.077
5 | CT45A5 (UniProt P0DMU8) | inactive: 0.116 | inactive: -0.039 | inactive: -0.069 | inactive: 0.066 | inactive: 0.075 | inactive: -0.008 | inactive: -0.09 | inactive: -0.136 | inactive: 0.092 | inactive: -0.111 | inactive: 0.053 | inactive: 0.034 | inactive: 0.2 | inactive: 0.11 | inactive: -0.058 | inactive: 0.031 | inactive: -0.006 | inactive: 0.084 | inactive: 0.195 | inactive: -0.133
6 | DCP1A (UniProt Q9NPI6) | inactive: -0.014 | inactive: 0.011 | inactive: -0.139 | inactive: 0.016 | inactive: 0.014 | inactive: -0.19 | inactive: -0.214 | inactive: -0.007 | inactive: -0.088 | inactive: -0.019 | inactive: -0.157 | inactive: -0.107 | inactive: -0.002 | inactive: -0.088 | inactive: -0.133 | inactive: -0.173 | inactive: 0.077 | inactive: 0.053 | inactive: 0.021 | inactive: -0.139
7 | DCAF1 (UniProt Q9Y4B6) | inactive: 0.011 | inactive: -0.013 | inactive: 0.03 | inactive: -0.095 | inactive: -0.083 | inactive: -0.063 | inactive: 0.037 | inactive: 0.006 | inactive: 0.006 | inactive: 0.037 | inactive: -0.04 | inactive: -0.018 | inactive: -0.064 | inactive: -0.045 | inactive: 0.008 | inactive: 0.03 | inactive: 0.009 | inactive: 0.019 | inactive: -0.102 | inactive: -0.04
8 | CTSH (UniProt P09668) | inactive: -0.071 | inactive: -0.034 | inactive: 0.166 | inactive: 0.03 | inactive: 0.084 | inactive: -0.041 | inactive: 0.055 | inactive: 0.056 | inactive: 0.09 | inactive: -0.063 | inactive: 0.012 | inactive: 0.029 | inactive: 0.032 | inactive: 0.04 | inactive: -0.002 | inactive: -0.01 | inactive: -0.02 | inactive: 0.005 | inactive: 0.022 | inactive: 0.197
9 | CUL2 isoform 2 (UniProt Q13617) | inactive: -0.035 | inactive: 0.042 | inactive: -0.034 | inactive: -0.003 | inactive: -0.084 | inactive: -0.003 | inactive: 0.053 | inactive: -0.009 | inactive: -0.069 | inactive: 0.006 | inactive: 0.017 | inactive: -0.013 | inactive: -0.076 | inactive: -0.001 | inactive: 0.01 | inactive: 0.022 | inactive: 0.032 | inactive: 0.022 | inactive: -0.023 | inactive: -0.007
10 | DCTN6 (UniProt O00399) | inactive: -0.056 | inactive: -0.041 | inactive: 0.019 | inactive: -0.029 | inactive: 0.033 | inactive: 0.016 | inactive: 0.038 | inactive: -0.088 | inactive: -0.047 | inactive: 0.049 | inactive: -0.011 | inactive: -0.012 | inactive: -0.031 | inactive: 0.01 | inactive: 0.001 | inactive: 0.05 | inactive: 0.038 | inactive: 0.011 | inactive: -0.069 | inactive: -0.11
11 | CSTB (UniProt P04080) | inactive: 0.052 | inactive: 0.076 | inactive: 0.029 | inactive: 0.019 | inactive: 0.042 | inactive: 0.013 | inactive: 0.024 | inactive: -0.025 | inactive: -0.137 | inactive: 0.004 | inactive: -0.012 | inactive: -0.152 | inactive: -0.122 | inactive: -0.083 | inactive: 0.055 | inactive: -0.035 | inactive: 0.029 | inactive: 0.072 | inactive: -0.125 | inactive: -0.156
12 | CUX1 isoform 2 (UniProt Q13948) | inactive: 0.051 | inactive: 0.042 | inactive: -0.001 | inactive: -0.029 | inactive: -0.084 | inactive: 0.078 | inactive: 0.072 | inactive: 0.063 | inactive: 0.062 | inactive: 0.007 | inactive: -0.027 | inactive: -0.031 | inactive: -0.033 | inactive: -0.026 | active: 0.343 | inactive: 0.076 | inactive: 0.137 | inactive: -0.016 | inactive: -0.047 | inactive: -0.03
13 | CWC15 (UniProt Q9P013) | inactive: -0.067 | inactive: -0.125 | inactive: 0.009 | inactive: 0.072 | inactive: 0.044 | inactive: 0.012 | inactive: -0.032 | inactive: 0.047 | inactive: 0.041 | inactive: 0.019 | inactive: 0.036 | inactive: -0.032 | inactive: 0.028 | inactive: -0.033 | inactive: -0.021 | inactive: -0.101 | inactive: -0.079 | inactive: -0.004 | inactive: 0.046 | inactive: 0.005
14 | CYB5R4 (UniProt Q7L1T6) | inactive: -0.044 | inactive: -0.065 | inactive: 0.001 | inactive: -0.019 | inactive: -0.045 | inactive: 0.022 | inactive: 0.033 | inactive: 0.03 | inactive: -0.017 | inactive: 0.035 | inactive: -0.035 | inactive: -0.042 | inactive: -0.084 | inactive: -0.062 | inactive: 0 | inactive: -0.005 | inactive: 0.007 | inactive: 0 | inactive: -0.074 | inactive: -0.136
15 | CUTA isoform 2 (UniProt O60888) | inactive: -0.148 | inactive: 0.1 | inactive: 0.016 | inactive: 0.016 | inactive: 0 | inactive: -0.01 | inactive: 0.07 | inactive: 0.09 | inactive: 0.123 | inactive: 0.028 | inactive: -0.022 | inactive: 0.153 | inactive: 0.013 | inactive: 0.063 | inactive: 0.019 | inactive: -0.005 | inactive: 0.113 | inactive: -0.031 | inactive: -0.132 | inactive: -0.046
16 | DCAF7 (UniProt P61962) | inactive: 0.009 | inactive: 0.004 | inactive: -0.06 | inactive: -0.005 | inactive: -0.048 | inactive: -0.053 | inactive: -0.108 | inactive: 0.032 | inactive: -0.018 | inactive: 0.017 | inactive: -0.029 | inactive: -0.016 | inactive: -0.091 | inactive: -0.088 | inactive: 0.034 | inactive: 0.016 | inactive: 0.018 | inactive: -0.154 | inactive: -0.078 | inactive: -0.082

A second format for some results above:
Row	Target	log2 fold change (bafetinib)	log2 fold change [1]	log2 fold change (nilotinib)	log2 fold change [2]	log2 fold change (dasatinib)	log2 fold change [3]	log2 fold change [4]	log2 fold change [5]	log2 fold change (tipifarnib)	log2 fold change (mubritinib)	log2 fold change [6]	log2 fold change [7]	log2 fold change [8]	log2 fold change [9]	log2 fold change (entinostat)	log2 fold change (vorinostat)	log2 fold change (citarinostat)	log2 fold change (silmitasertib)	log2 fold change [10]	log2 fold change [11]
2	CTBP2 isoform 2 (UniProt P56545)	inactive: -0.011	inactive: -0.032	inactive: -0.028	inactive: 0.007	inactive: 0.023	inactive: -0.029	inactive: 0.054	inactive: 0.012	inactive: 0.062	inactive: 0.032	inactive: -0.005	inactive: -0.027	inactive: -0.04	inactive: -0.072	inactive: -0.015	inactive: 0.007	inactive: 0.02	inactive: -0.035	inactive: -0.016	inactive: 0.1
3	DCP1B (UniProt Q8IZD4)	inactive: 0.048	–	–	–	–	–	–	–	–	–	–	–	–	–	–	–	–	–	–	–
